# Test results as given in patent US20090156471A1, “Use of anti-amyloid agents for treating and typing pathogen infections” (RAMOT AT TEL AVIV UNIVERSITY LTD., priority 2005, published 2009).
# Chains of the proteins cited; added tags and fusions are not shown. Residues count along the entry.
# UniProt P07589, residues 33-2478: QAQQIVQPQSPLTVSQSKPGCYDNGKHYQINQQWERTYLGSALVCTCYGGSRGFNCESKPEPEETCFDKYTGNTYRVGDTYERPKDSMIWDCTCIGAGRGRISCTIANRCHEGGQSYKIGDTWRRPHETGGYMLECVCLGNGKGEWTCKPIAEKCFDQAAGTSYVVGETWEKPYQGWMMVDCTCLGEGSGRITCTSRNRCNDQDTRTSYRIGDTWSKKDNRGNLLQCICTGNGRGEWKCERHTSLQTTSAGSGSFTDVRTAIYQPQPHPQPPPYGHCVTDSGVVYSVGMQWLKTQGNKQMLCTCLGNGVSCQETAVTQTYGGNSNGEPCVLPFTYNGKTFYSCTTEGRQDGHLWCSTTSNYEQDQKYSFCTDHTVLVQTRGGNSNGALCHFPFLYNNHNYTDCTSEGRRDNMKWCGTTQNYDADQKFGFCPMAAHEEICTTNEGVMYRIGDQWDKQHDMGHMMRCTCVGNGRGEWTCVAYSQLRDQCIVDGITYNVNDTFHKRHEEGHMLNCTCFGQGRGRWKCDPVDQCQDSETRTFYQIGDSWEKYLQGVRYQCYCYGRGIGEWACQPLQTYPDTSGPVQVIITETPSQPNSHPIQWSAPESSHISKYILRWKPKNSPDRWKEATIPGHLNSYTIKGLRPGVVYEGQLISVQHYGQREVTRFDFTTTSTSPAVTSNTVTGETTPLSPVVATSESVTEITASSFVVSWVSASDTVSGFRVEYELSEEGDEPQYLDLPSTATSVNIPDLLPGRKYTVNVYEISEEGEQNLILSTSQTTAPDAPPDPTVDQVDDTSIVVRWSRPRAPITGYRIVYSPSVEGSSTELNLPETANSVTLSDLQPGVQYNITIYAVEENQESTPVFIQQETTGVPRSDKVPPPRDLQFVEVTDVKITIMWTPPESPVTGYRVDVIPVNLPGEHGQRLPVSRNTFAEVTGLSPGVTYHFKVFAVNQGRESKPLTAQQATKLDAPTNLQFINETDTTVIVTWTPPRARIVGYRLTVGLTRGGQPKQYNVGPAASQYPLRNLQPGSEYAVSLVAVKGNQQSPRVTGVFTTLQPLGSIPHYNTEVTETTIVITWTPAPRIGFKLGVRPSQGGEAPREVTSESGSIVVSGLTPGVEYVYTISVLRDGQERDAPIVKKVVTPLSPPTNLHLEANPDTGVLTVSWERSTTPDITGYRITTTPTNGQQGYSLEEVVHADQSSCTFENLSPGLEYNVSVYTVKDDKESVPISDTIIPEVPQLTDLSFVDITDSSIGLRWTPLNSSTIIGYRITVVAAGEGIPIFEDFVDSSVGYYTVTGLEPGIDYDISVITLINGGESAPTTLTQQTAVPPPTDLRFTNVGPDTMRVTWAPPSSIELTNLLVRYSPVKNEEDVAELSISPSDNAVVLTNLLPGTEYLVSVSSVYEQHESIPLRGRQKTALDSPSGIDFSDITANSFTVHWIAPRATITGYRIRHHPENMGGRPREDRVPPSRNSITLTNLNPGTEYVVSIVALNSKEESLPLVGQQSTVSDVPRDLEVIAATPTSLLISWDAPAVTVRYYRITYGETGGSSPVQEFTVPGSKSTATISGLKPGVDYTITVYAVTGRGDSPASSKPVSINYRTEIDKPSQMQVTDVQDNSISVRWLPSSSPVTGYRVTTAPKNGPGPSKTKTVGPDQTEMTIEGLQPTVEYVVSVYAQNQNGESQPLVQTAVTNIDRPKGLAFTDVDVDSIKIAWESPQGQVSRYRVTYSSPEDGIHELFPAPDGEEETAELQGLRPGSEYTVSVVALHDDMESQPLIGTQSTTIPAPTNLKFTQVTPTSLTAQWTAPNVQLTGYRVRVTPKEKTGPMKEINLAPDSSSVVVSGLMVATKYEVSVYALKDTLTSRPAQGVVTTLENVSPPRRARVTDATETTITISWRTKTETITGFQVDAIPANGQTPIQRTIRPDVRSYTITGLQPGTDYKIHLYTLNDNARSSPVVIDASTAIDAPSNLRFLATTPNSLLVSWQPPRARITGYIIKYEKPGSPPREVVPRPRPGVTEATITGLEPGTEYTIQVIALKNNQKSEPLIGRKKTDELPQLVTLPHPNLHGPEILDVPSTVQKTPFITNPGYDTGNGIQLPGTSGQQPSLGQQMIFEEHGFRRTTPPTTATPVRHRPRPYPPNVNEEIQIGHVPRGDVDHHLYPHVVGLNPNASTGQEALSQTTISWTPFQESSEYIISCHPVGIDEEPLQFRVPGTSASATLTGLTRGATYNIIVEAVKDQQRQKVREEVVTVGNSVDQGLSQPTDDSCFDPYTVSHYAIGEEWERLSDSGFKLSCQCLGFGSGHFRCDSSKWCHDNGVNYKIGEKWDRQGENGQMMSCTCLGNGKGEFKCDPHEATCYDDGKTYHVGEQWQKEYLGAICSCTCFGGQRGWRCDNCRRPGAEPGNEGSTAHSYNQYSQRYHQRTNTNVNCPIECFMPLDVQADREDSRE
# UniProt P28307, residues 21-151: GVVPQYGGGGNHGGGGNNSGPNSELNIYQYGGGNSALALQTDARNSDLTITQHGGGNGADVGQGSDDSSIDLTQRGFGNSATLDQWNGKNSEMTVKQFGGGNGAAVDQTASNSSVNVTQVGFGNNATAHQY
# No constants are given. Whether binding was seen depends on the method and setting. Some entries that bind do so weakly or less than the wild type.
# Molecular target: bovine fibronectin (Sigma) (bovine) (UniProt P07589)
# Assay: adhesion of curli-expressing E. coli XL1-Blue(pMRInv) to wells coated with bovine fibronectin, A405
substance,measurement,value
curli (major curlin subunit CsgA) on E. coli K-12 XL1-Blue(pMRInv) (from UniProt P28307 21-151),binding,binds
